Assay results reported in paper PMC4196185.
No constants are given. Whether binding was seen depends on the method and setting. Binding seen in cells or lysates may run through a third protein. Some entries that bind do so weakly or less than the wild type. For part of these data: Where a sequence is shown, tags or fusion partners need not be part of it. Blank lines part the entries; values can stand above or below the molecule they belong to.

Chains of the proteins cited; added tags and fusions are not shown.
UniProt O60346: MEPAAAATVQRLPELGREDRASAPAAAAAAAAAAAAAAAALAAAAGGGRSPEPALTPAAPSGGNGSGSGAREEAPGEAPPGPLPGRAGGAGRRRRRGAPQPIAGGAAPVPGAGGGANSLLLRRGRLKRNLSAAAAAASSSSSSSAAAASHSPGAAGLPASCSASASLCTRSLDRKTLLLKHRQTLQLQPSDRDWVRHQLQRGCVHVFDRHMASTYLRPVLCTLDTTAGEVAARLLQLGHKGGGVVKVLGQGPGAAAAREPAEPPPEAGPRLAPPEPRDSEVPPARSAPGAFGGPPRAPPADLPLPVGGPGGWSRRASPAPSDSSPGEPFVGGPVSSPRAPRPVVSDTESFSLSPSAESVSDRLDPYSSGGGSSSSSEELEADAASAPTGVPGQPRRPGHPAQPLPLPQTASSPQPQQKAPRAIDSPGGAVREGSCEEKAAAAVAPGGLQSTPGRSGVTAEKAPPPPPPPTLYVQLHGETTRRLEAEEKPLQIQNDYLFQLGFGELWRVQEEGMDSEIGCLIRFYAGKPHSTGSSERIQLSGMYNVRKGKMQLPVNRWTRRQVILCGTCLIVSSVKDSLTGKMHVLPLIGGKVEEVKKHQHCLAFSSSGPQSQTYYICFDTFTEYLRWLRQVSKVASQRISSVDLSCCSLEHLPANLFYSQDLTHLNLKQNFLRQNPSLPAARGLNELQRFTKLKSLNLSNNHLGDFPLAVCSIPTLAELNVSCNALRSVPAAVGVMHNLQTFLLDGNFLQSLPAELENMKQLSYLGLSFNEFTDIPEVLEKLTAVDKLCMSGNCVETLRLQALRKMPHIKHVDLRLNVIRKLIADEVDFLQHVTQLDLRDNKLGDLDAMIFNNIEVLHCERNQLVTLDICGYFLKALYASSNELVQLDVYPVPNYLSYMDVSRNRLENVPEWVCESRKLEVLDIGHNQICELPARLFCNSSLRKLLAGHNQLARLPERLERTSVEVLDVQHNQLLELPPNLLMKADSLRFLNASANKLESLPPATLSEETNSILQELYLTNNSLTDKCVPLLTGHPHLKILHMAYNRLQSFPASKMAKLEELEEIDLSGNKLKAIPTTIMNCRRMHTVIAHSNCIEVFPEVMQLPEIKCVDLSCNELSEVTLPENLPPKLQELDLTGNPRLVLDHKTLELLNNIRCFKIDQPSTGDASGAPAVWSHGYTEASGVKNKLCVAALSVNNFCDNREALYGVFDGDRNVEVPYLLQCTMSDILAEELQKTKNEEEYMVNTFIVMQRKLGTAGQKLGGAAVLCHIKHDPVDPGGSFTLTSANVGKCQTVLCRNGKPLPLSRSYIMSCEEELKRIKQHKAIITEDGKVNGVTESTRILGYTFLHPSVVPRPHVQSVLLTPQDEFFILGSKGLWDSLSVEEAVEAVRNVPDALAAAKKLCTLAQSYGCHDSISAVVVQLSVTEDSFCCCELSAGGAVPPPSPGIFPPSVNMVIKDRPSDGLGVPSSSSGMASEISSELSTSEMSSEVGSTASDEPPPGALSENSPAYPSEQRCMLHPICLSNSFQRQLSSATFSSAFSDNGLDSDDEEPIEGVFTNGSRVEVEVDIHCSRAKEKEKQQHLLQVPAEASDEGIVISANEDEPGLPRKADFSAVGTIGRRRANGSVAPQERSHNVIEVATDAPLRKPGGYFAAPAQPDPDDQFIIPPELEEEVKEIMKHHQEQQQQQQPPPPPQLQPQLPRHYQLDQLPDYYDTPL
UniProt O75317: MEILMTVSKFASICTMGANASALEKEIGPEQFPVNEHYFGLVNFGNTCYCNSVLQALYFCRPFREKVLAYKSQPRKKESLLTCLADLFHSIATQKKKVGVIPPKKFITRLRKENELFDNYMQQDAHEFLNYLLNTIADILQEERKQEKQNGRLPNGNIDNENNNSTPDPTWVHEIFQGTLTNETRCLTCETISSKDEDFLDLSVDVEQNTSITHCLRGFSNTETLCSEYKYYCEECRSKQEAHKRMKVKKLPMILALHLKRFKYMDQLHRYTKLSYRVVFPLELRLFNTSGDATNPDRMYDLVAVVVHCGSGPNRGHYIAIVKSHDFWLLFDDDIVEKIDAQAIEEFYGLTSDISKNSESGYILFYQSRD

What was measured:
[1] = molecular target: T1, HA-PHLPPL (from pHA-PHLPPL) (UniProt Q6ZVD8); test: co-IP; COS-7 cells transfected with plasmids as indicated, 72h; lysates immunoprecipitated with PHLPP or PHLPPL antibody, 16h at 4°C, Protein G Sepharose; lysis buffer 50 mM Tris pH 7.5, 150 mM NaCl, 1% NP-40; immunoblotting
T1 sequence: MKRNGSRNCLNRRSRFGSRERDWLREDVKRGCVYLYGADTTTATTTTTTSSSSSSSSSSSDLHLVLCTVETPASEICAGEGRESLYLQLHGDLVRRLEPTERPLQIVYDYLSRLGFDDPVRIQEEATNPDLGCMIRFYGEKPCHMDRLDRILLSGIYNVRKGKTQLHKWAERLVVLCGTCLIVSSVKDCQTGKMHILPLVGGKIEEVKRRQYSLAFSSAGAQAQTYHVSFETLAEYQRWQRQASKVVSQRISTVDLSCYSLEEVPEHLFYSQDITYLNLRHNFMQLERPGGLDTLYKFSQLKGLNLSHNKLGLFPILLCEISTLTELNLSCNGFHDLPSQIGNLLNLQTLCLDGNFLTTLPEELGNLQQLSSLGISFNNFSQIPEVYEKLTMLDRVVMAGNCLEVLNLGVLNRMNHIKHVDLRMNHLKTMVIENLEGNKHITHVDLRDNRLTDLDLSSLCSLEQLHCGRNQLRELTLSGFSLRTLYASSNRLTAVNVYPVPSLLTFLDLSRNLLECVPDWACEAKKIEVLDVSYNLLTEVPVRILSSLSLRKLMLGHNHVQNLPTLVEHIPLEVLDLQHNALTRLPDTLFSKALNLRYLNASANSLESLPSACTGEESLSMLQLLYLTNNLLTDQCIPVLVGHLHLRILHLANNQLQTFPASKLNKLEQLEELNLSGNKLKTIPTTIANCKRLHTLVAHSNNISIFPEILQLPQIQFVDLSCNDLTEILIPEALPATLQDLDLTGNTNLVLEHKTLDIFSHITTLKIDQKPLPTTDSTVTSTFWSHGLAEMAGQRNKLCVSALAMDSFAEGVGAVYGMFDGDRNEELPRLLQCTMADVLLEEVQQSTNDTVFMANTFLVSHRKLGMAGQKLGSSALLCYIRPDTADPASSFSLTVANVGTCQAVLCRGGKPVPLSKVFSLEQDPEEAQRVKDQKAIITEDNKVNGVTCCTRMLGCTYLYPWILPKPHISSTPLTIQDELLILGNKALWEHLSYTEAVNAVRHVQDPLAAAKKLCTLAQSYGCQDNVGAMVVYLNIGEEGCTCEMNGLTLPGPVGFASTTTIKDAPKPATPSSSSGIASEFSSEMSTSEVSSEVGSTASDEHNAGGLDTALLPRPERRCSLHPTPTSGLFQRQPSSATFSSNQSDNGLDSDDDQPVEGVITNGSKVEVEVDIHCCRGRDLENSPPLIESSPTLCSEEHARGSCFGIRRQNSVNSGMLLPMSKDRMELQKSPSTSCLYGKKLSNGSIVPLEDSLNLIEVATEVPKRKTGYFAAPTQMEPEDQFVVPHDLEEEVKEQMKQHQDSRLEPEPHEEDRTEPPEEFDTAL

[2] = molecular target: PHLPP (Pleckstrin Homology domain leucine rich repeat protein phosphatase), endogenous in LNCaP (human (endogenous in LNCaP)) (UniProt O60346); test: co-IP; endogenous proteins; LNCaP lysates immunoprecipitated for PHLPP, PHLPPL or with non-specific IgG, 16h at 4°C, Protein G Sepharose; lysis buffer 50 mM Tris pH 7.5, 150 mM NaCl, 1% NP-40; immunoblotting
[3] = molecular target: T2, PHLPPL, endogenous in LNCaP (human (endogenous in LNCaP)) (UniProt Q6ZVD8); test: as above
T2 sequence: T1 sequence

binding [1]: binds
Molecule: Flag-Usp12 wild type (from pFlag-Usp12) (from UniProt O75317 1-370) (enzyme)

binding [2]: binds
binding [3]: binds
Molecule: Usp12, endogenous in LNCaP (from UniProt O75317 1-370) (enzyme)

binding [1]: binds
B1: HA-Flag-WDR20 (from pHA-Flag-WDR20) (protein, UniProt Q8TBZ3 1-569)
chain: MATEGGGKEMNEIKTQFTTREGLYKLLPHSEYSRPNRVPFNSQGSNPVRVSFVNLNDQSGNGDRLCFNVGRELYFYIYKGVRKAADLSKPIDKRIYKGTQPTCHDFNHLTATAESVSLLVGFSAGQVQLIDPIKKETSKLFNEERLIDKSRVTCVKWVPGSESLFLVAHSSGNMYLYNVEHTCGTTAPHYQLLKQGESFAVHTCKSKSTRNPLLKWTVGEGALNEFAFSPDGKFLACVSQDGFLRVFNFDSVELHGTMKSYFGGLLCVCWSPDGKYIVTGGEDDLVTVWSFVDCRVIARGHGHKSWVSVVAFDPYTTSVEEGDPMEFSGSDEDFQDLLHFGRDRANSTQSRLSKRNSTDSRPVSVTYRFGSVGQDTQLCLWDLTEDILFPHQPLSRARTHTNVMNATSPPAGSNGNSVTTPGNSVPPPLPRSNSLPHSAVSNAGSKSSVMDGAIASGVSKFATLSLHDRKERHHEKDHKRNHSMGHISSKSSDKLNLVTKTKTDPAKTLGTPLCPRMEDVPLLEPLICKKIAHERLTVLIFLEDCIVTACQEGFICTWGRPGKVVSFNP

binding [2]: binds
binding [3]: binds
B2: WDR20, endogenous in LNCaP (protein, UniProt Q8TBZ3 1-569)
chain: B1 chain
